Where a name gives a salt, the structure may show the parent alone. The list shows a part of the results. The calls rarely recur for the same compound in another form.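 In K562 cells expressing nanoluciferase-fused kinases, luminescence was recorded at 4 h intervals between 2 and 18 h, normalized as percent of control with DMSO at 100% and a positive control at 0%. A significant (2 sigma) signal drop marks a time point as decreased. The authors' rule for a hit is not shown and takes in more than the number of time points.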
How the values were obtained:
Test in all cases: number of time points (of 5) at which kinase-Nluc abundance scored as decreased, DMSO-normalised (count); higher = more persistent destabilization
Conditions in all cases: K562; 2-18 h
CSNK1A1 = CSNK1A1 (UniProt P48729)
CSNK1D = CSNK1D (UniProt P48730)
DDR1 = DDR1 (UniProt Q08345)
DYRK1B = DYRK1B (UniProt Q9Y463)
DYRK2 = DYRK2 (UniProt Q92630)
EGFR = EGFR (UniProt P00533)
EGFR_G719S = EGFR_G719S (UniProt P00533)
EGFR_G719S_T790M = EGFR_G719S_T790M (UniProt P00533)
EGFR_L718V = EGFR_L718V (UniProt P00533)
EGFR_L858R = EGFR_L858R (UniProt P00533)

By UniProt entry, the sequences of proteins in these tests, tags left out. Where a name states a change or a piece, a line headed by the entry shows the natural chain unless it says otherwise.
UniProt P48729: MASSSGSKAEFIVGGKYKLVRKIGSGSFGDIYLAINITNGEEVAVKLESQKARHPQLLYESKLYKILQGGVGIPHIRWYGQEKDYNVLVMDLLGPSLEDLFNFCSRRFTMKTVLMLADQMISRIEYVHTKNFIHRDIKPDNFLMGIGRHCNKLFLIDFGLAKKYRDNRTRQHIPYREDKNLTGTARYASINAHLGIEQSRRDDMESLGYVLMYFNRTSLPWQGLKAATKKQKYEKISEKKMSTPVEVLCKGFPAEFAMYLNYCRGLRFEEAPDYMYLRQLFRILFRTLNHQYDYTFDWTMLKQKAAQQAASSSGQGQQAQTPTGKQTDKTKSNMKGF
UniProt P48730: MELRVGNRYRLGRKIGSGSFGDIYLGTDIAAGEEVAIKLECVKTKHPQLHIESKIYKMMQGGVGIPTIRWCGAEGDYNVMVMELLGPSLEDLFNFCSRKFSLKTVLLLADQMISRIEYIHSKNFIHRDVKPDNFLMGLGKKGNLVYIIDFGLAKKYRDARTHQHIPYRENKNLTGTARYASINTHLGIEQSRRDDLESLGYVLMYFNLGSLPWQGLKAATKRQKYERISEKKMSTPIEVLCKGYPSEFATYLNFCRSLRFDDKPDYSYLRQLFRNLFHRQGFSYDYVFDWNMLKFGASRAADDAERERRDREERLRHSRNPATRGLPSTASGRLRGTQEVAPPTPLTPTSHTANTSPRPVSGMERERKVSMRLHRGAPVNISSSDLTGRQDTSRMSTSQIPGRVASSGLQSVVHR
UniProt Q08345: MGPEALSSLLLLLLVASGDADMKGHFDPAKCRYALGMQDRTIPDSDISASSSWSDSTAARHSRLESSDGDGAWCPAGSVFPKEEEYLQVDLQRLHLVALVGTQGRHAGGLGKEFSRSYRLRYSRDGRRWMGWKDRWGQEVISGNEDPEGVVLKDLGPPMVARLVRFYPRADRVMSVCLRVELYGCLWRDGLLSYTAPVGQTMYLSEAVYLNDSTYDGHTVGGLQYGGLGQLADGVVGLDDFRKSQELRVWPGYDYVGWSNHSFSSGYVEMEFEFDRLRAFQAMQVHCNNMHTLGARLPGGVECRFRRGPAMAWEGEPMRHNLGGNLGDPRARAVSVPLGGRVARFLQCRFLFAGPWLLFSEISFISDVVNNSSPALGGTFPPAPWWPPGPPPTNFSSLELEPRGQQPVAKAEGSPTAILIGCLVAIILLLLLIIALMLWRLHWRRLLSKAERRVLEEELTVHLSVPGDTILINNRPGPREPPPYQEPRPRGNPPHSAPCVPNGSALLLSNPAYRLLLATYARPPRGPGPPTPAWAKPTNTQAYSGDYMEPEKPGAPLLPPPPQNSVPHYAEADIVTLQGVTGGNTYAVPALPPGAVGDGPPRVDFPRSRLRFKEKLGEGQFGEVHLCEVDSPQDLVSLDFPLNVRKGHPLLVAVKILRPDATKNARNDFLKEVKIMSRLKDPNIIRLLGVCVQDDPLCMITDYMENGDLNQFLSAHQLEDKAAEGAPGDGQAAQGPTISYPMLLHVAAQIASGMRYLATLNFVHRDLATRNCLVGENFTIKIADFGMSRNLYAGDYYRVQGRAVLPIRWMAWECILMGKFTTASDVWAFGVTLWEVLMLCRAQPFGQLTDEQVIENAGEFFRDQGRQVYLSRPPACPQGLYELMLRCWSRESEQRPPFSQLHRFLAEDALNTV
UniProt Q9Y463, whole entry, looked up: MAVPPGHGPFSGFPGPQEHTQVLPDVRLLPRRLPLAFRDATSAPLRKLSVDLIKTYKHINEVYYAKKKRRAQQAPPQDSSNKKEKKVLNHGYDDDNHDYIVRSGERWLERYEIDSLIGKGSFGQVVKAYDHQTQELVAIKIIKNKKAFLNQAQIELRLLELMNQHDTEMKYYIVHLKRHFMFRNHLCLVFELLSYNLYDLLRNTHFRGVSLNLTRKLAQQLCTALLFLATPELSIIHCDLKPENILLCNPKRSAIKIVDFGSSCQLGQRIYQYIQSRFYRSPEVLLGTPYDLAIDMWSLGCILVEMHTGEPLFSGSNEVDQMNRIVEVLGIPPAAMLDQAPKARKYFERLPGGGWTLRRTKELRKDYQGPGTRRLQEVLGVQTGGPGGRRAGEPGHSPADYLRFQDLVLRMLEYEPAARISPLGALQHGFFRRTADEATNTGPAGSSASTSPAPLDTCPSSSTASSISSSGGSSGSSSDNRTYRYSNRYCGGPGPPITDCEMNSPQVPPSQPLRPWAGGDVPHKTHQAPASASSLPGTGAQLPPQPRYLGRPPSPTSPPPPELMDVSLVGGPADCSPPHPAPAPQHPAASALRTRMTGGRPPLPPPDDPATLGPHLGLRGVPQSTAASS
UniProt Q92630: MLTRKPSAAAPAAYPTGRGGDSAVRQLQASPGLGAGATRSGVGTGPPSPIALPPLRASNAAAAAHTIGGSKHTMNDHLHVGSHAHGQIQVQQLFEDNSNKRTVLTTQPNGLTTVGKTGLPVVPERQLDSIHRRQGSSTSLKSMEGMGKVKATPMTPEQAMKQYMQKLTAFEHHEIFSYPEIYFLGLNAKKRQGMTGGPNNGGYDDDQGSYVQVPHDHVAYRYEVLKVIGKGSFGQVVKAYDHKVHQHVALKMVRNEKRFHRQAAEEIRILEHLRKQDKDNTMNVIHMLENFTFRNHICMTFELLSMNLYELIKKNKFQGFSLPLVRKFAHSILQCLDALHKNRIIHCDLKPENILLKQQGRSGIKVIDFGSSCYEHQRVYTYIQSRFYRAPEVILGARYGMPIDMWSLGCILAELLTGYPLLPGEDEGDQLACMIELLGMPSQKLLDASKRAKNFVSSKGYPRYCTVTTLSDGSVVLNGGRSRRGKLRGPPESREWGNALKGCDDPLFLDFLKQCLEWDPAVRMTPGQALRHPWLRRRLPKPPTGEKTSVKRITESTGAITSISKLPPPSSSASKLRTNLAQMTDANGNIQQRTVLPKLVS

Structure (SMILES) | number of time points (CSNK1A1) | number of time points (CSNK1D) | number of time points (DDR1) | number of time points (DYRK1B) | number of time points (DYRK2) | number of time points (EGFR) | number of time points (EGFR_G719S) | number of time points (EGFR_G719S_T790M) | number of time points (EGFR_L718V) | number of time points (EGFR_L858R)
COc1ccc([C@@H]2CC(=O)c3c(O)cc(O)cc3O2)cc1O [Hesperetin] (10 µM) | 0 | 0 | 0 | 0 | 0 | 0 | 0 | 0 | 0 | 0
CC(C)NC(=O)N1CC[C@H](NC2=Nc3cc(F)ccc3N(CC(F)F)c3ccc(Cl)cc32)C1 (10 µM) | 0 | 0 | 0 | 0 | 0 | 0 | 0 | 0 | 0 | 0
O=C(Nc1cc(Oc2cc(F)c(NC(=O)C3(C(=O)Nc4ccc(F)cc4)CC3)cc2F)ccn1)C1CC1 [Altiratinib] (10 µM) | 0 | 0 | 4 | 0 | 0 | 0 | 3 | 0 | 0 | 0
Cc1csc(-c2nnc(Nc3ccc(Oc4ncccc4-c4ccnc(N)n4)cc3)c3ccccc23)c1 (2.5 µM) | 0 | 0 | 0 | 0 | 0 | 0 | 0 | 0 | 0 | 0
Nc1ncnc2c1c(-c1ccc(Oc3ccccc3)cc1)nn2C1CCCNC1 (racemic) (2.5 µM) | 0 | 0 | 0 | 0 | 0 | 0 | 0 | 0 | 0 | 0
O=C1Nc2nc(-c3c(O)cccc3OCC3CC3)cc([C@@H]3CCCNC3)c2CO1 [Bay 65-1942 (hydrochloride)] (10 µM) | 0 | 0 | 0 | 0 | 4 | 0 | 1 | 0 | 0 | 0
COc1cc(S(C)(=O)=O)ccc1Nc1nc2ccc(-c3ccc(NC(=O)[C@H](C)c4ccc(F)cc4)cc3)cn2n1 [Empesertib] (10 µM) | 0 | 0 | 0 | 0 | 0 | 0 | 0 | 0 | 0 | 0
O=C(Nc1nc2ccccc2[nH]1)c1cccc(-n2cccc2)c1 (10 µM) | 0 | 0 | 0 | 0 | 0 | 0 | 0 | 0 | 0 | 0
CCn1c(=O)c(-c2ccc(-c3cncc(C)n3)cc2Cl)cc2cnc(NCCC3CCN(C)CC3)nc21 (10 µM) | 0 | 0 | 0 | 0 | 0 | 0 | 0 | 0 | 0 | 0
COCCOc1ccc(-c2cn(-c3ccccc3)c3nc[nH]c(=O)c23)cc1 (10 µM) | 0 | 0 | 0 | 0 | 0 | 0 | 0 | 0 | 0 | 0
C/C(=C1/C(=O)Nc2ccc(NC(N)=O)cc21)c1ccc[nH]1 (10 µM) | 0 | 0 | 3 | 0 | 2 | 0 | 0 | 0 | 0 | 0
N#Cc1c(-c2ccccc2)cc(-c2cc(Br)ccc2O)[nH]c1=O (10 µM) | 0 | 0 | 0 | 0 | 0 | 0 | 0 | 0 | 0 | 0
O=C(NCCO)c1ccc2c(c1)nc(Nc1cccc(Cl)c1)c1ccncc12 [CK2 inhibitor 2] (10 µM) | 0 | 0 | 0 | 0 | 0 | 0 | 0 | 0 | 0 | 0
O=C(NC(NC(=S)Nc1ccc(F)c([N+](=O)[O-])c1)C(Cl)(Cl)Cl)C(c1ccccc1)c1ccccc1 (stereo not given) (10 µM) | 0 | 0 | 0 | 0 | 0 | 0 | 0 | 0 | 0 | 0
COc1cc(N2CCC(N3CCN(C)CC3)CC2)ccc1Nc1ncc(Cl)c(Nc2ccccc2P(C)(C)=O)n1 [Brigatinib] (2 µM) | 0 | 0 | 2 | 0 | 1 | 0 | 0 | 0 | 0 | 0
COc1cc(C(N)=O)nc(-c2cccc(C#C[C@]3(O)CCN(C)C3=O)c2)c1 (10 µM) | 0 | 0 | 0 | 0 | 0 | 0 | 0 | 0 | 0 | 0
N#Cc1ccc2ncnc(NC3CCC(N4CCOCC4)CC3)c2c1 (stereo not given) (10 µM) | 0 | 0 | 0 | 0 | 0 | 0 | 0 | 0 | 0 | 0
O=C(/C=C/c1ccc(O[C@@H]2O[C@H](CO)[C@@H](O)[C@H](O)[C@H]2O[C@@H]2OC[C@](O)(CO)[C@H]2O)cc1)c1ccc(O)cc1O [Isoliquiritin apioside] (10 µM) | 0 | 0 | 0 | 0 | 0 | 0 | 0 | 0 | 0 | 0

Structure (SMILES) | number of time points (CSNK1A1) | number of time points (CSNK1D) | number of time points (DDR1) | number of time points (DYRK1B) | number of time points (DYRK2) | number of time points (EGFR) | number of time points (EGFR_G719S) | number of time points (EGFR_G719S_T790M) | number of time points (EGFR_L718V) | number of time points (EGFR_L858R)
N#CC(c1ccnc(NCCc2cccnc2)n1)c1nc2ccccc2s1 (stereo not given) (10 µM) | 0 | 0 | 0 | 0 | 0 | 0 | 0 | 0 | 0 | 0
CC(C)=CC(=O)CCC(=O)N1CCN(Cc2cc3nc(-c4cccc5[nH]ncc45)nc(N4CCOCC4)c3s2)CC1 (10 µM) | 5 | 0 | 0 | 0 | 0 | 1 | 5 | 0 | 0 | 0
CC(C)CN[C@H]1CS(=O)(=O)C[C@@H]1S(=O)(=O)c1ccc(Cl)cc1 (10 µM) | 0 | 0 | 0 | 0 | 0 | 0 | 0 | 0 | 0 | 0
COc1ccc2[nH]cc(/C=C3\C(=O)Nc4ccc(NC(=O)CCN5CCCCC5)cc43)c2c1 (2.5 µM) | 0 | 0 | 0 | 0 | 0 | 0 | 0 | 0 | 0 | 0
Cc1c(CN2CCN(C(=O)[C@H](C)O)CC2)sc2c(N3CCOCC3)nc(-c3cnc(N)nc3)nc12 [Apitolisib] (10 µM) | 3 | 0 | 3 | 0 | 3 | 2 | 2 | 0 | 0 | 0
C[C@@]1(O)CCC[C@H]1n1c(=O)c(C(F)F)cc2cnc(NC3CCN(S(C)(=O)=O)CC3)nc21 (2.5 µM) | 0 | 0 | 3 | 0 | 1 | 0 | 0 | 3 | 0 | 0
Cc1cc([C@H](C)Nc2ccccc2)c2oc(N3CCOCC3)cc(=O)c2c1 (10 µM) | 0 | 0 | 0 | 0 | 0 | 0 | 0 | 0 | 0 | 0
COc1cc2c[n+](C)c3c4cc5c(cc4ccc3c2cc1OC)OCO5 [Nitidine (chloride)] (2 µM) | 0 | 0 | 0 | 0 | 0 | 0 | 0 | 0 | 0 | 0
O=C(Nc1ccc2[nH]nc(-c3ccncc3)c2c1)[C@@H]1CCN(CC(=O)N2CCN(c3ccc(-c4ncccn4)cc3)CC2)C1 (2.5 µM) | 0 | 0 | 0 | 0 | 0 | 0 | 0 | 0 | 0 | 0
Cc1ccc(-c2c(C(=O)CF)n(CCCO)c3ncnc(N)c23)cc1 (10 µM) | 0 | 0 | 0 | 0 | 0 | 0 | 0 | 0 | 0 | 0
CCOc1cc(C(=O)N2CCC(N3CCN(C)CC3)CC2)ccc1Nc1ncc2c(n1)N(C1CCCC1)c1ccccc1C(=O)N2C (10 µM) | 0 | 0 | 0 | 0 | 0 | 0 | 0 | 0 | 0 | 0
O=C(/C=C/c1ccc(O)c(O)c1)c1ccc(O[C@@H]2O[C@H](CO)[C@@H](O)[C@H](O)[C@H]2O)c(O)c1O [Marein] (10 µM) | 0 | 0 | 0 | 0 | 0 | 0 | 0 | 0 | 0 | 0
CCOc1ccc(C(=O)Nc2ncc([N+](=O)[O-])s2)cc1 (10 µM) | 0 | 0 | 0 | 0 | 0 | 0 | 0 | 0 | 0 | 0
CC(C)CC1(O)CCN(C(=O)c2ccc(NS(=O)(=O)c3cccc4nccnc34)cc2)CC1 (10 µM) | 0 | 0 | 0 | 0 | 0 | 0 | 0 | 0 | 0 | 0
Nc1nccc(Oc2ccc(NC(=O)c3cn(COP(=O)(O)O)cc(-c4ccc(F)cc4)c3=O)cc2F)c1Cl (10 µM) | 0 | 0 | 1 | 0 | 1 | 0 | 0 | 2 | 0 | 1
Cc1ccc(Oc2nc3cc(-c4ccc5c(ccn5C)c4)c(Cl)cc3[nH]2)cc1C(=O)O (10 µM) | 0 | 0 | 0 | 0 | 0 | 0 | 0 | 0 | 0 | 0
CC(C)=CCC[C@](C)(O[C@@H]1O[C@H](CO)[C@@H](O)[C@H](O)[C@H]1O)[C@H]1CC[C@]2(C)[C@@H]1[C@H](O)C[C@@H]1[C@@]3(C)CC[C@H](O)C(C)(C)[C@@H]3[C@@H](O[C@@H]3O[C@H](CO)[C@@H](O)[C@H](O)[C@H]3O[C@@H]3O[C@@H](C)[C@H](O)[C@@H](O)[C@H]3O)C[C@]12C [Ginsenoside Re] (10 µM) | 0 | 0 | 0 | 0 | 0 | 0 | 0 | 0 | 0 | 0
NCCN1CCN(C/C=C/C(=O)N2CCC[C@@H](n3nc(-c4ccc(Oc5ccccc5)cc4)c4c(N)ncnc43)C2)CC1 [Ibrutinib-MPEA] (10 µM) | 0 | 0 | 0 | 0 | 0 | 0 | 0 | 0 | 0 | 0

Single records, from the list above. Order of values: number of time points (CSNK1A1) | number of time points (CSNK1D) | number of time points (DDR1) | number of time points (DYRK1B) | number of time points (DYRK2) | number of time points (EGFR) | number of time points (EGFR_G719S) | number of time points (EGFR_G719S_T790M) | number of time points (EGFR_L718V) | number of time points (EGFR_L858R)
O=C(Nc1cc(Oc2cc(F)c(NC(=O)C3(C(=O)Nc4ccc(F)cc4)CC3)cc2F)ccn1)C1CC1 [Altiratinib] (10 µM) is listed with 0 | 0 | 4 | 0 | 0 | 0 | 3 | 0 | 0 | 0
Cc1ccc(-c2c(C(=O)CF)n(CCCO)c3ncnc(N)c23)cc1 (10 µM) is listed with 0 | 0 | 0 | 0 | 0 | 0 | 0 | 0 | 0 | 0

— the supplement of paper PMC12823440, “Inhibitors supercharge kinase turnover through native proteolytic circuits” (Nature, 2025)
